± gives the uncertainty stated by the source. The uncertainty is large for many entries.
Assay: self-splicing fitness, log relative to wild type (ln ratio); higher = more splicing; Tetrahymena group I intron in knt gene, E. coli kanamycin selection, DiMSum; sequences stand for … in CUCUCU…GGAGGGAAAAGUUAUCAGGCAUGCACCUGGUAGCUAGUCUUUAAACCAAUAGAUUGCAUCGGUUUAAAAGGCAAGACCGUCAAAUUGCGGGAAAGGGGUCAACAGCCGUUCAGUACCAAGUCUCAGGGGAAACUUUGAGAUGGCCUUGCAAAGGGUAUGGUAAUAAGCUGACGGACAUGGUCCUAACCACGCAGCCAAGUCCUAAGUCAACAGAUCUUCUGUUGAUAUGGAUGCAGUUCACAGACUAAAUGUCGGUCGGGGAAGAUGUAUUCUUCUCAUAAGAUAUAGUCGGACCUCUCCUUAAUGGGAGCUAGCGGAUGAAGUGAUGCAACACUGGAGCCGCUGGGAACUAAUUUGUAUGCGAAAGUAUAUUGAUUAGUUUUGGAGUACUCGUGGUCG
Summary of the method: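 Pooled colonies went to amplicon sequencing on an Illumina HiSeq 2500 after six replicate transformations. The plates were LB agar with 100 μg/mL carbenicillin, 50 μM IPTG and 0.2% rhamnose, with or without 25 μg/mL kanamycin, incubated overnight at 37°C or 30°C. The E. coli BL21(DE3) library had all eight P1ex-region intron nucleotides randomised, the intron placed in the knt kanamycin-resistance gene on pET-22b(+). DiMSum fitness is the error-weighted combination of replicate fold changes, kanamycin against none, normalised to wild type.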

Row | Sequence | self-splicing fitness (ln) (37 °C) | self-splicing fitness (ln) (30 °C)
1 | GUUUAGCAAUAUUACGGAGG | -3.08 ± 1 | –
2 | CUGGAGCAAUAUUACGUUCA | -3.2 ± 0.73 | -3.13 ± 0.61
3 | GCUAAGCAAUAUUACGGGCU | – | -3.64 ± 0.61
4 | UGGUAGCAAUAUUACGCCAC | -2.63 ± 1.1 | -2.68 ± 0.62
5 | CGCGAGCAAUAUUACGAGUC | -1.57 ± 0.29 | -2.7 ± 0.38
6 | GCAGAGCAAUAUUACGAUCG | – | -3.22 ± 0.64
7 | UAGCAGCAAUAUUACGAUCG | -0.0334 ± 0.12 | -0.76 ± 0.093
8 | GGCUAGCAAUAUUACGAUAA | -1.75 ± 0.16 | -1.28 ± 0.17
9 | UGGUAGCAAUAUUACGAGAU | – | -0.998 ± 0.5
10 | GGCCAGCAAUAUUACGGCUC | -4.19 ± 0.59 | -1.31 ± 0.56
11 | UAUGAGCAAUAUUACGGGCC | – | -2.16 ± 0.51
12 | UAAAAGCAAUAUUACGCUUC | – | -5.68 ± 0.5
13 | UUCGAGCAAUAUUACGGAUC | – | -4.36 ± 0.53
14 | GUCAAGCAAUAUUACGCCCU | 0.51 ± 0.15 | -0.585 ± 0.16
15 | AACUAGCAAUAUUACGACCU | 0.541 ± 0.11 | -0.168 ± 0.083
16 | CUAUAGCAAUAUUACGAUAG | – | -4.21 ± 0.59
17 | CUCGAGCAAUAUUACGGGCC | -1.48 ± 0.56 | -0.86 ± 0.91
18 | CCCGAGCAAUAUUACGGAAU | -3.05 ± 0.53 | -4.53 ± 0.51
19 | ACCGAGCAAUAUUACGGCAG | -3.9 ± 0.72 | –
20 | UUUGAGCAAUAUUACGCAUA | – | -0.813 ± 0.73
21 | GCAUAGCAAUAUUACGCGCU | – | -3.87 ± 0.53
22 | GGUAAGCAAUAUUACGUUAG | -1.72 ± 0.19 | -3.15 ± 0.18
23 | GAUGAGCAAUAUUACGAGGC | -1.04 ± 0.71 | -1.61 ± 0.76
24 | UUAAAGCAAUAUUACGCGAA | 0.0649 ± 0.18 | -0.169 ± 0.15

Row | Sequence | self-splicing fitness (ln) (37 °C) | self-splicing fitness (ln) (30 °C)
25 | CUGGAGCAAUAUUACGCCGC | – | -3.19 ± 1.2
26 | AACGAGCAAUAUUACGAUAU | -1.3 ± 0.17 | -3.13 ± 0.21
27 | CCUAAGCAAUAUUACGCCCU | -1.69 ± 1.2 | –
28 | CUAUAGCAAUAUUACGCCAC | – | -3.21 ± 0.76
29 | CCGAAGCAAUAUUACGCCGA | -1.94 ± 0.65 | -3.43 ± 0.53
30 | UGGAAGCAAUAUUACGCAAG | – | -5.31 ± 1
31 | AUUAAGCAAUAUUACGGGGU | -2.83 ± 0.2 | -4.11 ± 0.24
32 | ACGGAGCAAUAUUACGUUAU | – | -4.91 ± 0.51
33 | UUGGAGCAAUAUUACGUAGG | -1.86 ± 0.15 | -3.11 ± 0.23
34 | CACGAGCAAUAUUACGAGUC | – | -4.87 ± 1
35 | AUGGAGCAAUAUUACGGUAA | – | -3.34 ± 0.75
36 | UGGAAGCAAUAUUACGUAAG | -0.81 ± 0.13 | -1.07 ± 0.12
37 | ACGCAGCAAUAUUACGCUCC | – | -2.36 ± 0.5
38 | CGGUAGCAAUAUUACGCGUG | -1.82 ± 0.14 | -2.11 ± 0.15
39 | UCAGAGCAAUAUUACGAACU | -3.64 ± 0.59 | –
40 | ACGUAGCAAUAUUACGCCGC | -3.46 ± 0.73 | –
41 | GGACAGCAAUAUUACGAGUU | -1.24 ± 0.11 | -3.64 ± 0.19
42 | UCUCAGCAAUAUUACGCCAC | – | 0.271 ± 1.2
43 | UCGGAGCAAUAUUACGUGGA | -1.48 ± 0.18 | -1.28 ± 0.2
44 | GCUGAGCAAUAUUACGAAUC | -0.914 ± 0.17 | -1.15 ± 0.12
45 | CUGUAGCAAUAUUACGAGAA | – | -1.9 ± 0.52
46 | GUUUAGCAAUAUUACGAUAA | -0.197 ± 0.53 | -1.52 ± 0.51
47 | CUUUAGCAAUAUUACGGCAC | – | -2.64 ± 0.56
48 | GAAAAGCAAUAUUACGCACG | -0.904 ± 0.12 | -0.543 ± 0.09

Row | Sequence | self-splicing fitness (ln) (37 °C) | self-splicing fitness (ln) (30 °C)
49 | UUUUAGCAAUAUUACGCCAU | -2.93 ± 0.75 | -3.47 ± 0.73
50 | GCGAAGCAAUAUUACGCCUC | -2.7 ± 0.54 | –
51 | UUAGAGCAAUAUUACGAGUC | – | -2.61 ± 0.57
52 | CGGAAGCAAUAUUACGAAGU | – | -3.82 ± 0.6
53 | CUGAAGCAAUAUUACGGCGC | -3.33 ± 0.6 | -4.98 ± 1
54 | UUCCAGCAAUAUUACGGUUU | -0.427 ± 0.063 | -0.65 ± 0.064
55 | CCUUAGCAAUAUUACGAACU | -2 ± 0.64 | -4.05 ± 0.72
56 | CACUAGCAAUAUUACGUCUA | -2.52 ± 0.29 | -2.25 ± 0.23
57 | CCUUAGCAAUAUUACGCGAU | -3.16 ± 0.22 | -5.23 ± 0.72
58 | GGCGAGCAAUAUUACGGCCC | – | 0.209 ± 0.31
59 | UCUGAGCAAUAUUACGCAUC | – | -1.67 ± 0.6
60 | GAGGAGCAAUAUUACGUCCU | -1.18 ± 0.72 | –
61 | UCGGAGCAAUAUUACGCGCA | -0.494 ± 0.51 | –
62 | CCCAAGCAAUAUUACGUCCC | -3.05 ± 0.53 | –
63 | AUUAAGCAAUAUUACGCGGC | – | -3.36 ± 0.53
64 | AUUUAGCAAUAUUACGACAU | 0.28 ± 0.033 | 0.163 ± 0.014
65 | GGCAAGCAAUAUUACGCCAG | – | -2.44 ± 0.55
66 | AAACAGCAAUAUUACGCAUC | -2.07 ± 0.11 | -2.82 ± 0.13
67 | GUAUAGCAAUAUUACGCUCA | – | -1.9 ± 0.66
68 | UCCUAGCAAUAUUACGUCAA | – | -3.78 ± 0.6
69 | GGUUAGCAAUAUUACGGGAA | -2.35 ± 0.57 | -0.855 ± 0.58
70 | GUGGAGCAAUAUUACGACGG | -2.19 ± 0.78 | -2.15 ± 0.56
71 | CUAUAGCAAUAUUACGGAAU | -2.62 ± 0.76 | –
72 | UGGGAGCAAUAUUACGAUUU | -3.49 ± 0.6 | –

Look-ups from the entries so far.
UGGGAGCAAUAUUACGAUUU | self-splicing fitness (ln) (37 °C): -3.49 ± 0.6
GUCAAGCAAUAUUACGCCCU | self-splicing fitness (ln) (37 °C): 0.51 ± 0.15
AUUUAGCAAUAUUACGACAU | self-splicing fitness (ln) (37 °C): 0.28 ± 0.033
CCCAAGCAAUAUUACGUCCC | self-splicing fitness (ln) (37 °C): -3.05 ± 0.53
GGUUAGCAAUAUUACGGGAA | self-splicing fitness (ln) (37 °C): -2.35 ± 0.57

The listing continues:

Row | Sequence | self-splicing fitness (ln) (37 °C) | self-splicing fitness (ln) (30 °C)
73 | GUGUAGCAAUAUUACGCAUC | – | -4.35 ± 0.51
74 | UUCCAGCAAUAUUACGUUCC | – | -4.67 ± 0.72
75 | GUAGAGCAAUAUUACGGUGG | -0.894 ± 0.23 | -3.39 ± 0.45
76 | UAGGAGCAAUAUUACGCGGG | – | -4.56 ± 0.51
77 | GGGUAGCAAUAUUACGGGCC | -1.75 ± 0.81 | –
78 | AAGUAGCAAUAUUACGGGCC | – | -2.75 ± 0.63
79 | GGAAAGCAAUAUUACGAACG | -0.441 ± 0.12 | -0.51 ± 0.1
80 | UGUCAGCAAUAUUACGAGAC | – | -4.95 ± 0.51
81 | UCGGAGCAAUAUUACGCAUC | -3.44 ± 0.59 | -3.68 ± 0.53
82 | GGAGAGCAAUAUUACGCGGU | -2.82 ± 0.75 | –
83 | GCGUAGCAAUAUUACGCAUA | -2.17 ± 0.21 | -3.49 ± 0.2
84 | CUAGAGCAAUAUUACGGAGC | – | -5.02 ± 0.51
85 | UGGGAGCAAUAUUACGCUGC | – | -2.74 ± 0.56
86 | CGCGAGCAAUAUUACGCUCA | – | -2.09 ± 1.4
87 | GGAGAGCAAUAUUACGCACC | -2.29 ± 1.1 | -2.45 ± 0.64
88 | AAGGAGCAAUAUUACGGCAA | -0.839 ± 0.74 | –
89 | GCCCAGCAAUAUUACGCUCG | -2.34 ± 0.27 | -3.45 ± 0.24
90 | GUUAAGCAAUAUUACGAGAC | -0.662 ± 0.25 | -4.77 ± 0.59
91 | GUGGAGCAAUAUUACGUGAA | – | -3.87 ± 0.62
92 | AAGCAGCAAUAUUACGCGGU | -2.55 ± 0.23 | -3.08 ± 0.17
93 | GUGUAGCAAUAUUACGGCAG | – | -2.39 ± 0.57
94 | AGGAAGCAAUAUUACGAAGC | -1.1 ± 0.92 | -3.34 ± 1

— the supplement of paper PMC7877785
